Measurements published in paper PMC11210491.

By UniProt entry, the sequences of proteins in these tests, tags left out. Where a name states a change or a piece, a line headed by the entry shows the natural chain unless it says otherwise.
UniProt P37231: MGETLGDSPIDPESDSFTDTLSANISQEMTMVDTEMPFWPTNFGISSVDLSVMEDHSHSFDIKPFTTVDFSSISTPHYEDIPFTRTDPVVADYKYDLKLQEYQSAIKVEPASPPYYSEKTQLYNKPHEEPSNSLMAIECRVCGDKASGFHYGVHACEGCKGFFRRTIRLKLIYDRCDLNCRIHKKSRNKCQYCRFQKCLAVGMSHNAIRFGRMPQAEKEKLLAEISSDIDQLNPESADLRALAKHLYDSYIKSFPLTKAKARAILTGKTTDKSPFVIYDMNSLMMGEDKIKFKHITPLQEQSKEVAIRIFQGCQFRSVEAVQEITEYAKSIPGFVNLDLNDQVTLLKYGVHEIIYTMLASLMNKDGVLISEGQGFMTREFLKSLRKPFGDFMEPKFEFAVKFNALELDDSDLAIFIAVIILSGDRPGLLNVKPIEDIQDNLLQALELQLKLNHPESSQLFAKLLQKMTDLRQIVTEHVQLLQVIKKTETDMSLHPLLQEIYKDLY
UniProt Q9NR19: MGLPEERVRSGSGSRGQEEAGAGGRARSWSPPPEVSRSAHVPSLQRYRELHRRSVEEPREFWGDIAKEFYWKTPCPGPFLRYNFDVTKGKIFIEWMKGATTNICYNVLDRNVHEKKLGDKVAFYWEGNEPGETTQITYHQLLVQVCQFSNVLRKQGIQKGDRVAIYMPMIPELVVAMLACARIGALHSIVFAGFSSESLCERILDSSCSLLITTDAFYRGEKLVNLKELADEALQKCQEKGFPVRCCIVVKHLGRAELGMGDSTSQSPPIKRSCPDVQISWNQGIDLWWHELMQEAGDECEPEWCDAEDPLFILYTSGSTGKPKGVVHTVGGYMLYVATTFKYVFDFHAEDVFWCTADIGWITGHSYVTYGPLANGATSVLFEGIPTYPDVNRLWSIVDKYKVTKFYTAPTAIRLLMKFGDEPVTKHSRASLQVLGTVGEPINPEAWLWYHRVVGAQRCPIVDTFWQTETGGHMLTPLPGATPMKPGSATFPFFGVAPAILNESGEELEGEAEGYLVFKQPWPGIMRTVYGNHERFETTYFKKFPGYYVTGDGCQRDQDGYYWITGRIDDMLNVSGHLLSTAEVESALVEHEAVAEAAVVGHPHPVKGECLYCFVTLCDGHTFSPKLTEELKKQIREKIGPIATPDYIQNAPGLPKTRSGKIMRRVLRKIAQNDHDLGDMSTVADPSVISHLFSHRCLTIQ

Legend:
[1] = molecular target: VC155-HA-PPARγ (peroxisome-proliferator-activated receptor gamma) (human) (UniProt P37231); experiment: split reporter; SH-SY5Y cells transfected with 2 μg of the BiFC plasmids; with 10 μM NaAC, 1 μM NaPPA and 0.1 μM NaBA alone or together for 24 h
[2] = molecular target: VC155-HA-PPARγ (peroxisome-proliferator-activated receptor gamma) (human) (UniProt P37231); experiment: split reporter; HEK293T cells cotransfected with pBiFC-VN173 and pBiFC-VC155 fusion plasmids (2 μg); YFP fluorescence imaged after 24 h, DAPI for nuclei
[3] = molecular target: His-ACSS2 (human) (UniProt Q9NR19); experiment: pull-down; reverse direction of the pull-down of purified His-ACSS2 and GST-PPARγ (ACSS2 pulling down PPARγ); conditions not given; both purified
[4] = molecular target: GST-PPARγ (human) (UniProt P37231); experiment: pull-down; GST pull-down: 200 ng purified His-ACSS2 with 100 ng GST-PPARγ and glutathione agarose beads; 50 mM tris-HCl pH 7.5, 1% Triton X-100, 150 mM NaCl, 1 mM dithiothreitol, 0.5 mM EDTA, 4 °C; both purified

- binding [1]: binds
- binding [2]: binds
Substance: VN173-Flag-ACSS2 (acetyl-coenzyme A synthetase short-chain family member 2) (from UniProt Q9NR19-1 1-701)

- binding [3]: binds
Substance: GST-PPARγ (from UniProt P37231-2) (receptor)

- binding [4]: binds
Substance: His-ACSS2 (from UniProt Q9NR19-1 1-701) (enzyme)

Results are given in words; binding and its absence hold for the method and conditions named. Binding can be weak; no strength is given. For some of these results: Binding seen in cells or lysates may run through a third protein. Each block holds one substance with its values, some of them ahead of it.
